Experimental findings from paper PMC11933327, “Asymmetric activation of dimeric ATM/Tel1 kinase” (Cell Discovery, 2025) are described below.

Chains of the proteins cited; added tags and fusions are not shown.
UniProt O74630: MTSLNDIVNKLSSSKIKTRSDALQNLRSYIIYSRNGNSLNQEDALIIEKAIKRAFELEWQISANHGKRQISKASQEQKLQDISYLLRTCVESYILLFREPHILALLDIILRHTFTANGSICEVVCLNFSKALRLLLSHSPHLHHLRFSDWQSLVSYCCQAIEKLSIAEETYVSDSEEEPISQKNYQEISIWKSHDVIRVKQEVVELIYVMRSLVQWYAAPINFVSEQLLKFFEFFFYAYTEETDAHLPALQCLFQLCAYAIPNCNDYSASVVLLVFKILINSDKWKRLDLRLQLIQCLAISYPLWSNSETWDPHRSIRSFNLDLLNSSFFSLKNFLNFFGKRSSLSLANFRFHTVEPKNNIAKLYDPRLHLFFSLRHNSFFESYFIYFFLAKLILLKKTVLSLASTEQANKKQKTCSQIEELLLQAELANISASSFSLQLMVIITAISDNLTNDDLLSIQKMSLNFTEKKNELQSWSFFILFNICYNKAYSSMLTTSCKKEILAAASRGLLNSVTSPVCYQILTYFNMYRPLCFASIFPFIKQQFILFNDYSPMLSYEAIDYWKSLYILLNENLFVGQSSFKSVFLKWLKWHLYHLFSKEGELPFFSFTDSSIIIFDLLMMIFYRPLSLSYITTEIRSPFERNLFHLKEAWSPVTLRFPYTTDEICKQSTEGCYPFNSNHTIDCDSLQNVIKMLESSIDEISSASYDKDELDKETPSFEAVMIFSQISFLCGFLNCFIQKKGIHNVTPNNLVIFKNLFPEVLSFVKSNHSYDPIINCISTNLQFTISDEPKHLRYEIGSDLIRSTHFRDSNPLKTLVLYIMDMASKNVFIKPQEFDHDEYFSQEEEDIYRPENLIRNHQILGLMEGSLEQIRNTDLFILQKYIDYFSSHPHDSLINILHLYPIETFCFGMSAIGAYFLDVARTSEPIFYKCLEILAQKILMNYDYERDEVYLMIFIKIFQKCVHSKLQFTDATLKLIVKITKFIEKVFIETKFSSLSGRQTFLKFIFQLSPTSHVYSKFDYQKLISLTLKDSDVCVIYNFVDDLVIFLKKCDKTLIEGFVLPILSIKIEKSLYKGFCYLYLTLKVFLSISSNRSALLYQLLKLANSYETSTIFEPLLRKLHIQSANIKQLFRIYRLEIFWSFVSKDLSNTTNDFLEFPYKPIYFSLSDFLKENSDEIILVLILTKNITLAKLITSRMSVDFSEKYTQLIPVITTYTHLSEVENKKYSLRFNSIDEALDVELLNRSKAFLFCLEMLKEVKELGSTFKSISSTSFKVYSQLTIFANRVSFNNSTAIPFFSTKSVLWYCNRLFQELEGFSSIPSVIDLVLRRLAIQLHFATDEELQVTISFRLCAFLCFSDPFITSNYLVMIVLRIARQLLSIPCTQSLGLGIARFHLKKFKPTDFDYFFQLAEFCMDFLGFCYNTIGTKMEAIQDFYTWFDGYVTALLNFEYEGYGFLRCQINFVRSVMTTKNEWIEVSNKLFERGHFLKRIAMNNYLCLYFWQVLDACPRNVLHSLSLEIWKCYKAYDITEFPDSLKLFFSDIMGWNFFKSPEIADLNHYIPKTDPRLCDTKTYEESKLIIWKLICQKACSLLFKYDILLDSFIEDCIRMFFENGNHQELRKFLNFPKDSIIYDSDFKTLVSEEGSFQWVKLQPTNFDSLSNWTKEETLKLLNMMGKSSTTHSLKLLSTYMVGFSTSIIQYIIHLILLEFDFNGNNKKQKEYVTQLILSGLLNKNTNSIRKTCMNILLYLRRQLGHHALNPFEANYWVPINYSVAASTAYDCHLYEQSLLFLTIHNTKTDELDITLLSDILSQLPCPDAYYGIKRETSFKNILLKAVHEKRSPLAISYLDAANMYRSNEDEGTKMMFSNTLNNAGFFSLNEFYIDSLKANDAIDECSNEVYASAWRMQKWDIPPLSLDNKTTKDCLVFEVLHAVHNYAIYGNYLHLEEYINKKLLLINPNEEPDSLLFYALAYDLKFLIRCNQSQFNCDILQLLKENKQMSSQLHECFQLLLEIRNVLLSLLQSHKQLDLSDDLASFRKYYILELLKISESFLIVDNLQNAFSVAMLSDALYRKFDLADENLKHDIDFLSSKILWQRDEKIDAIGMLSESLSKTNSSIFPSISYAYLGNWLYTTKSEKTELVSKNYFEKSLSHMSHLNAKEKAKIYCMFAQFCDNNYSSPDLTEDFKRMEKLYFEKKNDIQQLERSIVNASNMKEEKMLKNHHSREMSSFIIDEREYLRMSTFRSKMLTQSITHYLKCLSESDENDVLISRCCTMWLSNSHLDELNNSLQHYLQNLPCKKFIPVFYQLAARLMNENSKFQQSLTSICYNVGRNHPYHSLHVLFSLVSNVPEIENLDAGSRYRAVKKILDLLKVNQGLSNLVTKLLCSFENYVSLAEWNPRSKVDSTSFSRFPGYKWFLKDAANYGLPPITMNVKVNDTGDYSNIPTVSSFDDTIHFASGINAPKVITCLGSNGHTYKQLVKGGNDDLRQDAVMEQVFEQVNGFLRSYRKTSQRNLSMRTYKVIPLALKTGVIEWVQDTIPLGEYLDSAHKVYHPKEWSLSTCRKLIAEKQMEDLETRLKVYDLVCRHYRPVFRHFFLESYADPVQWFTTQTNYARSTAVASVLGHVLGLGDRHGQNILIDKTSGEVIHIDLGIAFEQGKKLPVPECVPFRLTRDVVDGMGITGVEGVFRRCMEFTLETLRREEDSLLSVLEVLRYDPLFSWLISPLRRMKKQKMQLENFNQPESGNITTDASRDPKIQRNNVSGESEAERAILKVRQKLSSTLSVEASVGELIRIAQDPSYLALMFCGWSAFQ
UniProt O96017: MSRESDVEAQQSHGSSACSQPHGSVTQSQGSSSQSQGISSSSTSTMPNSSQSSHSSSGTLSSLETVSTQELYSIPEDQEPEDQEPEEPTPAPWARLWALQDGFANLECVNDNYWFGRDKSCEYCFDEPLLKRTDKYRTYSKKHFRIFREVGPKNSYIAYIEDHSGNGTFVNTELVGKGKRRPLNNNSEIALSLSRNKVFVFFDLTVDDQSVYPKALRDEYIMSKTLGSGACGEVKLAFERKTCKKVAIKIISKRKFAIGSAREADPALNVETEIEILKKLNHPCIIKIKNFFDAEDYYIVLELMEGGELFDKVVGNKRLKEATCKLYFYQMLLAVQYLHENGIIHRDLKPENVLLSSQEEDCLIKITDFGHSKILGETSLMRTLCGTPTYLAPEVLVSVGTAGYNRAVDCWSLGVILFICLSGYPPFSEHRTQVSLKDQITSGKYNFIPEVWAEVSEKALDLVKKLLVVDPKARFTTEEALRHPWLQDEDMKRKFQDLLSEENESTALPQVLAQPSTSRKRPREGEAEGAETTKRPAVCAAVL

The target in the experiment is ATM/Tel1, basal state (Schizosaccharomyces pombe) (UniProt O74630). The experiment can be described thus: SPR; CHK2 (full length or peptide) at varied concentrations on basal or active ATM/Tel1; both purified. In general terms: SPR reads the build-up and loss of mass on a sensor chip optically.

These are yes or no findings as the source states them, for the method shown. Some binding calls cover weakened binding; strength is not graded here.

Turning to “full-length CHK2 (from UniProt O96017 1-543)”, the binding entry is recorded as “binds”.
